The list shows a part of the results. Shown are side measurements of this screen, not its main read-out; they come without a call. Most of these compounds were active or inconclusive in the main read-out, so they are no random draw. Words in brackets tell the shape of the fitted curve; partial curves, single points and poor fits give uncertain potencies.

The nature of the test: qHTS Assay for Lipid Storage Modulators in Drosophila S3 Cells.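 For cell number change: cells counted by Cell Tracker Red CMTPX staining in the red channel.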 The conditions noted are these: BODIPY lipid droplet fluorescence, 18-24 h; for cell number change: measured here: cell count max response, cells fed with added oleic acid. The essentials:
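Drosophila S3 cells got compounds at several concentrations plus oleic acid (400 uM solution). Laser-scanning cytometry with 488 nm excitation read lipid droplets at 500-530 nm and cells at 575-640 nm. Percent activity was relative to 20 uM Triacsin C.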

The mark [1] stands for this setting: measured here: cell number channel AC50, cells fed with added oleic acid.
The mark [2] stands for this setting: measured here: lipid fluorescence (Fed channel) AC50, cells fed with added oleic acid.

Regarding `COc1cc(C(=O)ON=C2C=C(C)C(=O)C(C)=C2)cc(OC)c1OC`, the half-maximal activity concentration (AC50) (commonly the concentration at which the activity in the assay is half-maximal) was 6.51 µM [rising, single point] under setting [1] and 0.00651 µM [falling, full curve, poor fit] under setting [2].
Consider `CCOC(=O)c1c(NC(=O)CSc2nnnn2-c2ccccc2)sc2c1CCC(C)C2` (centres undefined), for which the cell number change is 46.4%. Further, the AC50 under setting [1] is 29.1 µM [rising, single point].
`CCc1ccc(NC(=O)CCNC(=O)Cn2ccc3ccccc3c2=O)cc1`: the cell number change was 124%. Also, the half-maximal activity concentration (AC50) under setting [1] is 20.6 µM [rising, partial curve]. The concentration at half-maximal activity (AC50) under setting [2] was 29.1 µM [rising, single point].
Take `Cc1ccc(NC(=O)c2ccc(OCc3c(C)noc3C)cc2)cc1`: the cell number change is -23.6%. For the same compound, the AC50 under setting [2] is 0.13 µM [falling, full curve, poor fit].
In the case of `C/C(=N\NC(=O)c1ccccc1[N+](=O)[O-])c1c(O)cc(C)oc1=O`, the AC50 reads like this: under setting [1], 3.66 µM [rising, single point]; under setting [2], 29.1 µM [falling, single point].
In the case of `COc1ccccc1CNC(=O)COC(=O)c1ccc(C)s1`, the AC50 under setting [2] was 29.1 µM [falling, single point].
For `O=S(=O)(Nc1ccc(O)c(NS(=O)(=O)c2ccccc2)c1)c1ccccc1`, the cell number change worked out at 7.33%.
For `Cc1ccccc1NC(=O)Cn1cc(C(=O)C2CC2)c2ccccc21`, the cell number change stood at 18.1%. In addition, the concentration at half-maximal activity (AC50) under setting [2] is 0.82 µM [rising, single point].
As for `CC(=O)c1cn(Cc2ccccc2)c(=O)n(Cc2ccc(F)cc2)c1=O`, the cell number change was found to be 52.1%. The AC50 under setting [1] is 7.31 µM [rising, full curve, poor fit].
Consider `CCn1nc(C(=O)NNC(=O)CCOc2cc(C)ccc2C)c2ccccc2c1=O`, for which the cell number change came out at 11.3%. Further, under setting [2], the AC50 was 7.08 µM [rising, full curve, poor fit].
Regarding `CC(=O)c1c(C)[nH]c(C(=O)CSc2nnc3ccccn23)c1C`, the cell number change was 22.8%. For the same compound, the half-maximal activity concentration (AC50) under setting [1] was 4.11 µM [rising, single point]. Further, under setting [2], the half-maximal activity concentration (AC50) was 29.1 µM [rising, single point].
As for `CCOC(=O)CNC(=O)c1sc2nc(C)cc(C)c2c1N`, the cell number change was -19.5%. Besides, the AC50 under setting [1] is 0.164 µM [falling, partial curve, poor fit]. Under setting [2], the AC50 is 6.51 µM [falling, single point].
For `CCCCNC(=S)N/N=C1\C(=O)c2cccc3cccc1c23`, the half-maximal activity concentration (AC50) by setting is: under setting [1], 0.82 µM [rising, partial curve]; under setting [2], 0.82 µM [rising, partial curve].
Consider `CC(C)CC(=O)Nc1ccc(F)c(Cl)c1`, for which the cell number change was -0.0328%. Also, under setting [2], the concentration at half-maximal activity (AC50) was 0.184 µM [falling, full curve, poor fit].
Regarding `Cc1ccnc(NC(=O)Cc2ccc(-c3ccccc3)cc2)c1`, the cell number change came out at 16.9%.
Regarding `CCOC(=O)COc1ccc2ccccc2c1/C=C/[N+](=O)[O-]`, the cell number change was -32%. Further, under setting [1], the AC50 was 7.31 µM [falling, partial curve, poor fit]. The concentration at half-maximal activity (AC50) under setting [2] is 6.51 µM [falling, partial curve].
Turning to `COCCN(Cc1nc2ccccc2c(=O)[nH]1)C(=O)COc1cccc(C(C)=O)c1`, the cell number change turned out to be 19.7%.
Consider `O=C(CSc1ncccn1)NCc1cccc(Cl)c1`, for which the cell number change is -24.9%. Besides, the AC50 under setting [2] was 32.6 µM [falling, single point].
With `Cc1ccc(-c2cnc3ccccc3n2)cc1C`, the cell number change was -29.7%. Also, under setting [2], the AC50 was 6.51 µM [rising, single point].
For the compound `CCOC(=O)N=S(N)(=O)c1ccccc1` (centres undefined), the concentration at half-maximal activity (AC50) under setting [2] was 29.1 µM [falling, partial curve, poor fit].
Take `COc1ccc(CCNC(=O)CCC(=O)N2CCOc3ccccc32)cc1OC`: the cell number change is -7.49%. Moreover, the AC50 under setting [2] is 29.1 µM [falling, single point].
In the case of `NC(=O)c1c(NC(=O)c2cc3ccccc3o2)sc2c1CCC2`, the cell number change is -52.5%. The concentration at half-maximal activity (AC50) under setting [1] was 18.4 µM [falling, partial curve, poor fit].
As for `COc1ccc(NC(=O)COC(=O)c2cc(OC)c(OC)cc2NC(=O)c2ccco2)cc1OC`, the cell number change was -48.1%. In addition, under setting [1], the concentration at half-maximal activity (AC50) was 32.6 µM [falling, single point]. In addition, the concentration at half-maximal activity (AC50) under setting [2] is 0.651 µM [rising, partial curve, poor fit].
On to `O=C1CCCC2=C1C(c1ccncc1)c1c(nc(SCc3ccccc3)[nH]c1=O)N2` (centres undefined), for which the cell number change was 47.5%.
For `CN(C)CCCNc1nc(-c2ccccc2)c2c(c1C#N)CC(C)(C)OC2`, the cell number change was -31.5%. Moreover, the AC50 under setting [1] is 23.1 µM [falling, single point]. In addition, under setting [2], the AC50 is 2.59 µM [falling, full curve].
With `Cc1ccc2nc(N3CCOCC3)c(C=O)cc2c1`, the cell number change is -7.69%. In addition, under setting [2], the concentration at half-maximal activity (AC50) was 0.146 µM [rising, full curve, poor fit].
In the case of `COc1ccc(-n2c(C)nn(CC3CC3)c2=O)cc1`, the cell number change stood at 3.85%.
As for `c1ccc(Cc2noc(CN3CCN(CCOc4ccccc4)CC3)n2)cc1`, the cell number change was found to be 15.8%. Further, the AC50 under setting [2] is 11.6 µM [rising, partial curve].
As to `Cc1[nH]nc2c1C(c1ccc(F)cc1)C1=C(CC(C)(C)CC1=O)N2` (centres undefined), the cell number change was 74.8%. Further, the AC50 under setting [1] is 20.6 µM [rising, single point]. Moreover, the half-maximal activity concentration (AC50) under setting [2] was 18.4 µM [rising, partial curve].
For `COc1ccc(CNC(=O)N[C@@H](Cc2c[nH]c3ccccc23)C(=O)O)cc1`, the cell number change was 17.9%. For the same compound, under setting [2], the half-maximal activity concentration (AC50) is 2.06 µM [rising, partial curve].
With `Cc1ccc(OCCCn2ccnc2)c([N+](=O)[O-])c1`, the cell number change turned out to be 11%. Besides, under setting [2], the AC50 was 32.6 µM [rising, partial curve, poor fit].
Turning to `O=C(O)c1c(-c2ccccc2)nnc2ccccc12`, the cell number change worked out at 33.5%. The concentration at half-maximal activity (AC50) under setting [1] is 32.6 µM [rising, single point]. Under setting [2], the half-maximal activity concentration (AC50) was 29.1 µM [rising, single point].
Regarding `COc1ccc(CN2C(=O)C3C4C=CC(C4)C3C2=O)cc1` (centres undefined), the cell number change stood at 78.4%. For the same compound, under setting [1], the AC50 is 23.1 µM [rising, single point].
Regarding `CC(C)Nc1ccc(C(CC(N)=O)NC(=O)c2ccc(Br)cc2)cc1[N+](=O)[O-]` (centres undefined), the cell number change is 12.3%. Besides, under setting [2], the concentration at half-maximal activity (AC50) was 23.1 µM [rising, single point].
For `COC(=O)c1cccc(NC(=O)CN2CCC(NC(=O)c3cc(OC)c(OC)c(OC)c3)CC2)c1`, the cell number change amounted to 16.3%. Further, under setting [2], the concentration at half-maximal activity (AC50) is 2.91 µM [rising, partial curve].
Take `CCN(CC)CCCn1c(=S)[nH]c2cc(Cl)ccc2c1=O`: the cell number change is 15.1%. Moreover, the concentration at half-maximal activity (AC50) under setting [2] is 2.06 µM [falling, partial curve].
As to `O=c1ccc(-c2ccc(S(=O)(=O)NCC3CCN(Cc4cccc(F)c4)CC3)s2)n[nH]1`, the cell number change turned out to be 23.9%. Besides, the half-maximal activity concentration (AC50) under setting [2] was 29.1 µM [rising, single point].
On to `CCOc1ccc(NC(=O)CSc2nc(=O)n(Cc3ccccn3)c3c2CCC3)cc1`, for which the cell number change is 1.13%.
Take `COc1ccc(CC(=O)N/N=C(\C)c2cccs2)cc1OC`: the cell number change is -7.51%. The AC50 under setting [2] is 0.411 µM [rising, partial curve, poor fit].
With `N#CC(=C1N=c2ccccc2=N1)c1c(O)[nH]c2ccccc12`, the cell number change was determined as 31.1%. The concentration at half-maximal activity (AC50) under setting [1] was 32.6 µM [rising, single point].
As to `CCCCOC(=O)CCc1nc2ccccc2[nH]1`, the cell number change amounted to 23.6%. Moreover, under setting [1], the AC50 was 0.206 µM [rising, full curve, poor fit]. The half-maximal activity concentration (AC50) under setting [2] is 29.1 µM [rising, single point].
On to `O=Cc1cn(CC(=O)N2CCCCC2)c2ccccc12`, for which the cell number change is -62.9%. Moreover, the half-maximal activity concentration (AC50) under setting [1] was 20.6 µM [falling, single point]. The AC50 under setting [2] was 6.51 µM [falling, single point].
In the case of `CCc1ccc(NC(=O)CCCN2C(=O)C3CC=CCC3C2=O)cc1` (centres undefined), the cell number change was determined as 3.18%.
With `COc1ccc(C(N)=S)c(OC)c1`, the cell number change stood at 1.67%. Also, the half-maximal activity concentration (AC50) under setting [1] is 0.651 µM [rising, full curve, poor fit]. Further, the concentration at half-maximal activity (AC50) under setting [2] is 1.16 µM [rising, single point].
Regarding `O=C(COC(=O)c1cccnc1Cl)NCc1cccs1`, the cell number change turned out to be 36.9%. For the same compound, the AC50 under setting [1] is 0.00461 µM [rising, full curve, poor fit]. In addition, the AC50 under setting [2] is 29.1 µM [rising, single point].
Turning to `Cc1[nH]c2ccccc2c1C(=O)C(C)OC(=O)c1ccc(NC(=O)CC#N)cc1` (centres undefined), the half-maximal activity concentration (AC50) is 0.651 µM [falling, single point] under setting [1] and 4.61 µM [falling, single point] under setting [2].
Take `Cc1cccc(NC(=S)NCc2ccc3[nH]c4c(c3c2)CCCC4)c1`: the cell number change is -32.4%. For the same compound, the AC50 under setting [1] was 16.4 µM [falling, single point]. Further, under setting [2], the concentration at half-maximal activity (AC50) is 18.4 µM [falling, single point].
For the compound `COc1cccc(NC(=O)CN(C)C(C)C(=O)NC(=O)NC2CCCCC2)c1` (centres undefined), the cell number change is 3.88%. For the same compound, under setting [2], the AC50 was 2.91 µM [rising, single point].
As to `CCC1(CC)Cc2ccccc2-c2nc(CN3CCOCC3)[nH]c(=O)c21`, the cell number change was -15.6%.
For `Cc1n[nH]c(=O)nc1N1CCc2ccccc2C1`, the cell number change is 1.56%. The AC50 under setting [2] was 29.1 µM [rising, single point].
`CCOc1ccccc1-n1c(SCC(N)=O)nnc1-c1ccc(O)cc1`: the cell number change is -5.9%. For the same compound, under setting [1], the concentration at half-maximal activity (AC50) is 6.51 µM [falling, single point]. The AC50 under setting [2] was 6.51 µM [falling, single point].
`Cc1nc(Nc2ccccc2)[nH]c(=O)c1CCC(C)C`: the cell number change is -45.2%. Moreover, the AC50 under setting [1] was 32.6 µM [falling, single point].
Regarding `CCN(CC)c1ccc(/C=C2/C(=O)ON=C2C)cc1`, the AC50 under setting [2] was 8.2 µM [falling, partial curve].
For `COC(=O)c1sccc1NC(=S)N1CCC(C)CC1`, the cell number change was 43.1%. For the same compound, the AC50 under setting [1] is 1.3 µM [rising, partial curve]. Further, under setting [2], the half-maximal activity concentration (AC50) is 1.03 µM [rising, full curve].
As to `Cc1ccccc1/C=N/Nc1nc2ccccc2[nH]1`, the cell number change was -30.8%. Moreover, under setting [1], the concentration at half-maximal activity (AC50) is 25.9 µM [falling, single point].
In the case of `CCN(C(=O)C1CCCN(c2nc(-c3ccc(OC)cc3)no2)C1)c1ccccc1F` (centres undefined), the cell number change came to 12.6%. Also, under setting [2], the AC50 was 29.1 µM [falling, single point].
Consider `COc1ccccc1/C=C(/NC(=O)c1ccccc1)C(=O)NCCCn1ccnc1`, for which the cell number change was found to be 11%. Moreover, under setting [2], the half-maximal activity concentration (AC50) is 0.116 µM [rising, full curve, poor fit].
Take `COc1ccc(NS(=O)(=O)c2cccc(NC(=O)NC3CCCCC3)c2)cc1`: the AC50 under setting [1] was 0.00461 µM [falling, full curve, poor fit].
